In PubChem BioAssay (NCATS):
Inconclusive means that the source gave no clear call. Such entries were picked first, then a sample of the others. Potencies beside an inconclusive call are fits to weak or partial responses and may not hold up. Calls of active or inactive are those of the source. The call rests on the fitted dose curve; in most records, active means well fitted cell-killing curve with a large enough effect; inconclusive means small, poorly fitted or top-dose-only effect, or effect the other way; inactive means no such curve, though single readings can be large or run the other way. Bridge positions count the residues as written; N and C are the ends. Square brackets hold non-standard residues; d marks the D form. Peptide text beside a SMILES is read from it. * marks the point of attachment. ξ: configuration not given here. Octanoyl(6-Me) = CCC(C)CCCCC(=O)*; ξThr(3R) = C[C@@H](O)C(N)C(=O)O; dDab = NCC[C@@H](N)C(=O)O; Dab = NCC[C@H](N)C(=O)O

Experiment: Quantitative High-Throughput drug screen in 47 multiple myeloma cell lines against the NCATS MIPE library collection: H1112_PLB cell viability assay (AID 1918967; further: nearly all actives have a fitted effect of over 30% in size)
Details: H1112 myeloma cells viability, ATP luminescence, 48 h; viability: at 45.8 µM (top of the series)
Source text: PI: Beverly A. Mock Ph.D.
Laboratory of Cancer Biology and Genetics,
Center for Cancer Research, National Cancer Institute,
National Institute of Health, Bethesda, Maryland
Drug resistance and disease progression are common in multiple myeloma (MM) patients, underscoring the need for new therapeutic combinations. […] We hypothesized that effective combinations would reduce MYC expression and enhance p16 activity. […] These preclinical data identify potentially useful drug combinations for evaluation in drug-resistant MM and reveal potential mechanisms of combined drug sensitivity.
Described herein is the primary MIPE qHTS used to cherrypick compounds. Validated compounds were then further tested for potential synergistic activiy.
[1] Peat TJ, Gaikwad SM, Dubois W, Gyabaah-Kessie N, Zhang S, Gorjifard S, Phyo Z, Andres M, Hughitt VK, Simpson RM, Miller MA, Girvin AT, Taylor A, Williams D, D'Antonio N, Zhang Y, Rajagopalan A, Flietner E, Wilson K, Zhang X, Shinn P, Klumpp-Thomas C, McKnight C, Itkin Z, Chen L, Kazandijian D, Zhang J, Michalowski AM, Simmons JK, Keats J, Thomas CJ, Mock BA. Drug combinations identified by high-throughput screening promote cell cycle transition and upregulate Smad pathways in myeloma. Cancer Lett. 2023 Aug 1;568:216284. doi: 10.1016/j.canlet.2023.216284. Epub 2023 Jun 24. PMID: 37356470; PMCID: PMC10408729.
SEQUENCE No. (e.g., 1, 2, 3, etc.); […] (e.g., Cells, Incubation, Reagent, etc.); VALUE and DESCRIPTION.
1; Cells; 5 uL; white, solid bottom 1536-well Greiner assay plate.
2; Compounds; 23 nL; Kalypsis pin tool (Wako USA) equipped with a 1536-well pin head to transfer to the assay plates.
3; Incubation; 48 hours; 37C incubation.
4; Reagent;5uL; CellTiter Glo (Promega).
5; Detector; 425V; Luminescence; Viewlux PerkinElmer.
NOTES (numbers refer to Sequence numbers above)
1. The cell-based screening methods employed in this study were like those previously published. Briefly, the corresponding myeloma cell lines were screened in 1,536-well plates with 500 cells, 5-uL per well for inhibition of cell viability (assessed by measuring ATP levels with CellTiterGlo).
2. NCATS MIPE 4.0 library of approved and investigational drugs were added using the Kalypsis pin tool. Wells treated with DMSO only for 100% viability and media only wells for 0% viability were used as controls.
3. The assay plates were covered and incubated for 48 hours in a 37C, 5% CO2 incubator with controlled humidity.
4. After 48 hours, CellTilter-GloTM luminescent substrate mix (Promega) reagent was added to the assay plate and plates we incubated for 5 min at room temperature.
5. Signal was measured as median relative luminescence units on a ViewLux (PerkinElmer) multiplate reader.
[1] Heske CM, Davis MI, Baumgart JT, Wilson K, Gormally MV, Chen L, Zhang X, Ceribelli M, Duveau DY, Guha R, Ferrer M, Arnaldez FI, Ji J, Tran HL, Zhang Y, Mendoza A, Helman LJ, Thomas CJ. Matrix Screen Identifies Synergistic Combination of PARP Inhibitors and Nicotinamide Phosphoribosyltransferase (NAMPT) Inhibitors in Ewing Sarcoma. Clin Cancer Res. 2017 Dec 1;23(23):7301-7311. doi: 10.1158/1078-0432.CCR-17-1121. Epub 2017 Sep 12. PMID: 28899971; PMCID: PMC6636827.
Potency means the concentration at half of the fitted maximal effect.

| SMILES | Potency | viability |
| --- | --- | --- |
| C[C@H]1[C@H](NC(=O)C(=NOC(C)(C)C(=O)O)c2csc(N)n2)C(=O)N1S(=O)(=O)O | inactive |  |
| COC(=O)N1CCN(Cc2cccc(NC(=O)Nc3ccc(C)nc3)c2F)CC1 | inconclusive: 23.5 µM [cytotoxic, single point] |  |
| NC(=O)c1nnn(Cc2cc(Cl)c(C(=O)c3ccc(Cl)cc3)c(Cl)c2)c1N | inconclusive: 26.4 µM [cytotoxic, single point] |  |
| N[C@@]1(C(=O)O)CS(=O)(=O)[C@H]2[C@H](C(=O)O)[C@H]21 | inconclusive: 18.7 µM [cytotoxic, partial curve] |  |
| NCCc1cnc[nH]1 | inactive |  |
| Cc1cc2c(cc1C1(c3ccc(C(=O)O)cn3)CC1)C(C)(C)CCC2(C)C | active: 0.118 µM |  |
| CC1(C)Cc2c(-c3ccccc3)c(-c3ccc(Cl)cc3)c(CC(=O)O)n2C1 | inconclusive: 23.5 µM [cytotoxic, single point] |  |
| OCCN1CCN(CCCN2c3ccccc3Sc3ccc(C(F)(F)F)cc32)CC1 | active: 23.5 µM |  |
| COc1cccc([C@@H](C)NCCCc2ccccc2Cl)c1 | inconclusive: 37.2 µM [cytotoxic, single point] |  |
| Cc1cc(C(=O)NOCCO)c(Nc2ccc(I)cc2F)n(C)c1=O | inconclusive: 14.8 µM [cytotoxic, partial curve, poor fit] |  |
| COCCNCCCn1c(C(=O)CF)c(-c2ccc(C)cc2)c2c(N)ncnc21 | inconclusive: 26.4 µM [cytotoxic, single point] |  |
| CNC[C@H](O)c1cccc(O)c1 | inactive |  |
| CC=CC(=O)N(CC)c1ccccc1C | inactive |  |
| O=c1oc2c(O)c(O)cc3c(=O)oc4c(O)c(O)cc1c4c23 | inactive |  |
| CCOC(=O)C(C)(C)Oc1ccc(Cl)cc1 | inconclusive: 4.18 µM [cytotoxic, partial curve, poor fit] |  |
| O=C(C1CCCCC1)N1CC(=O)N2CCc3ccccc3C2C1 (stereo not given) | inactive |  |
| COc1cc(C(C)=O)ccc1OCCCN1CCC(c2noc3cc(F)ccc23)CC1 | inactive |  |
| CC(C)C[C@H](NC(=O)[C@H](CCc1ccccc1)NC(=O)CN1CCOCC1)C(=O)N[C@@H](Cc1ccccc1)C(=O)N[C@@H](CC(C)C)C(=O)[C@@]1(C)CO1 |  | inconclusive: 2.52% [cytotoxic] |
| CC(CCc1ccc(O)cc1)NCCc1ccc(O)c(O)c1 (stereo not given) | inconclusive: 37.2 µM [cytotoxic, single point] |  |
| CC(C)(Cc1ccc2ccccc2c1)NC[C@@H](O)COc1cccc(Cl)c1C#N | inactive |  |

2 compounds picked at random from the list so far:

| SMILES | Potency | viability |
| --- | --- | --- |
| CNC[C@H](O)c1cccc(O)c1 | inactive |  |
| O=c1oc2c(O)c(O)cc3c(=O)oc4c(O)c(O)cc1c4c23 | inactive |  |

Next entries follow.

| SMILES | Potency | viability |
| --- | --- | --- |
| Cn1c(=O)c2[nH]cnc2n(C)c1=O | inactive |  |
| CCC(C)CCCCC(=O)N[C@@H](CCN)C(=O)NC(C(=O)N[C@H](CCN)C(=O)N[C@@H]1CCNC(=O)C([C@@H](C)O)NC(=O)[C@@H](CCN)NC(=O)[C@@H](CCN)NC(=O)[C@@H](CC(C)C)NC(=O)[C@H](Cc2ccccc2)NC(=O)[C@H](CCN)NC1=O)[C@@H](C)O (stereo partly drawn) ({Octanoyl(6-Me)}-[Dab][ξThr(3R)][dDab][dDab][Dab]F[dL][dDab][dDab][ξThr(3R)]; lactam 4-C) | inactive |  |
| CC(C)C1CCC(C(=O)N[C@H](Cc2ccccc2)C(=O)O)CC1 (stereo not given in full) | inactive |  |
| CCC[C@H](N[C@@H](C)C(=O)N1[C@@H]2CCCC[C@H]2C[C@H]1C(=O)O)C(=O)OCC | inactive |  |
| c1cnc2cc3c(cc2n1)C1CNCC3C1 | inconclusive: 0.0033 µM [rising, full curve, poor fit] |  |
| CC(C)n1nc(-c2ccc3oc(N)nc3c2)c2c(N)ncnc21 | inconclusive: 1.18 µM [cytotoxic, partial curve] |  |
| COc1ccccc1N1CCN(CCN(C(=O)C2CCCCC2)c2ccccn2)CC1 | inconclusive: 11.8 µM [cytotoxic, single point] |  |
| CC(=O)OCC(=O)[C@@]12N=C(C)O[C@H]1C[C@H]1[C@@H]3CCC4=CC(=O)C=C[C@]4(C)[C@@H]3[C@@H](O)C[C@@]12C | inconclusive: 37.2 µM [cytotoxic, single point] |  |
| O=C(O)C1=NC(C(=O)O)CC(C=CN2c3cc(O)c(OC4OC(CO)C(O)C(O)C4O)cc3CC2C(=O)O)=C1 (stereo not given) | inactive |  |
| CCCCCCCCCCCC1=C(O)C(=O)C=C(O)C1=O | inconclusive: 2.35 µM [cytotoxic, full curve] |  |
| CCC(=O)O[C@]1(C(=O)CO)CC[C@H]2[C@@H]3CCC4=CC(=O)CC[C@]4(C)[C@@H]3CC[C@@]21C | inconclusive: 0.0332 µM [rising, full curve, poor fit] |  |
| CN[C@@H]1[C@@H](O)[C@@H](O[C@@H]2[C@@H](O)[C@H](O[C@H]3O[C@H](CN)[C@@H](O)[C@H](O)[C@@H]3O)[C@@H](N)C[C@@H]2NC(=O)[C@@H](O)CN)OC[C@]1(C)O | inconclusive: 26.4 µM [cytotoxic, single point] |  |
| CCn1cc(C(=O)O)c(=O)c2ccc(C)nc21 | inactive |  |
| NC(=O)[C@@H](CCC(F)(F)F)N(Cc1ccc(-c2ncon2)cc1F)S(=O)(=O)c1ccc(Cl)cc1 | inconclusive: 18.7 µM [cytotoxic, partial curve] |  |
| CCCCCCCCCCCC(CC1OC(=O)C1CCCCCC)OC(=O)C(CC(C)C)NC=O (stereo not given) | inactive |  |
| C[C@]1(c2nc3c(C(N)=O)cccc3[nH]2)CCCN1 | inconclusive: 16.6 µM [cytotoxic, partial curve] |  |
| NCCS(=O)(=O)O | inconclusive: 23.5 µM [cytotoxic, partial curve, poor fit] |  |
| Cc1nc(Nc2ncc(C(=O)Nc3c(C)cccc3Cl)s2)cc(N2CCN(CCO)CC2)n1 | inconclusive: 20.9 µM [cytotoxic, partial curve] |  |
| Cc1c(O)cccc1C(=O)N[C@@H](CSc1ccccc1)[C@H](O)CN1C[C@H]2CCCC[C@@H]2C[C@@H]1C(=O)NC(C)(C)C | inconclusive: 18.7 µM [cytotoxic, partial curve] |  |
| OC[C@H]1O[C@@H](Oc2ccc(O)cc2)[C@H](O)[C@@H](O)[C@H]1O | inconclusive: 13.2 µM [cytotoxic, partial curve] |  |
